Results deposited as PubChem BioAssay AID1671195 (Yale University, 2021).
This is one part, drawn at random, of about 22,000 reagents tested. About 1,510 of all reagents (6.9%) were called active. 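Active includes knockdowns raising or lowering LDL uptake; positive z-scores mean more uptake, negative mean less.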 Entries without a mark were called inactive.

- Purpose: 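Knockdowns that increase or decrease uptake of fluorescent LDL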 (primary screen)
- System: human Huh7 hepatoma cells
- Reagents: siRNA pool against human genes, 18 nM
- Duration: about 2 to 2.5 days of knockdown, then 8 h LDL uptake
- Conditions: DiI-labelled LDL at 30 µg/ml for 8 h, in lipoprotein-deficient serum medium
- Read-out: 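Per-cell DiI-LDL intensity by automated imaging; well means scaled to the plate median and given as a robust z-score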
- Scale: robust z-score: higher = more LDL uptake after knockdown
- Call rule: 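a gene counts as active if at least two replicate z-scores exceed ±2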

With MTARC2 (mitochondrial amidoxime reducing component 2), how do the results read?
robust z-score, replicate 1: 0.576; robust z-score, replicate 2: 0.254; robust z-score, replicate 3: -1.18

With DNAJB7 (DnaJ heat shock protein family (Hsp40) member B7), what was measured?
robust z-score, replicate 1: 1.48; robust z-score, replicate 2: 1.3; robust z-score, replicate 3: 0.979

What is on record for GTF2F1 (general transcription factor IIF subunit 1)?
robust z-score, replicate 1: -1.34; robust z-score, replicate 2: -1.65; robust z-score, replicate 3: -1.75

With SUSD1 (sushi domain containing 1), what does the deposit list?
robust z-score, replicate 1: 0.69; robust z-score, replicate 2: -0.123; robust z-score, replicate 3: 0.925

Which result is listed for FERD3L (Fer3 like bHLH transcription factor)?
robust z-score, replicate 1: 0.0557; robust z-score, replicate 2: 0.294; robust z-score, replicate 3: 0.388

Part of the list above in another layout.
{"gene symbol":"MTARC2 (mitochondrial amidoxime reducing component 2)","robust z-score, replicate 1":0.576,"robust z-score, replicate 2":0.254,"robust z-score, replicate 3":-1.18}
{"gene symbol":"DNAJB7 (DnaJ heat shock protein family (Hsp40) member B7)","robust z-score, replicate 1":1.48,"robust z-score, replicate 2":1.3,"robust z-score, replicate 3":0.979}

The list goes on:
For METTL13 (methyltransferase 13, eEF1A N-terminus and K55), what was measured?
robust z-score, replicate 1: -2.22; robust z-score, replicate 2: -1.22; robust z-score, replicate 3: -1.32

What is on record for LOC402463 (retired record)?
robust z-score, replicate 1: 0.51; robust z-score, replicate 2: -1.27; robust z-score, replicate 3: -0.00798

What is on record for SETD1B (SET domain containing 1B, histone lysine methyltransferase)?
robust z-score, replicate 1: -0.967; robust z-score, replicate 2: -1.21; robust z-score, replicate 3: -0.617

Which result is listed for VPS72 (vacuolar protein sorting 72 homolog)?
robust z-score, replicate 1: 1.4; robust z-score, replicate 2: 1.02; robust z-score, replicate 3: 1.4

Which result is listed for PCBP3 (poly(rC) binding protein 3)?
robust z-score, replicate 1: -0.48; robust z-score, replicate 2: -0.361; robust z-score, replicate 3: 0.116

For DHRS12 (dehydrogenase/reductase 12), what was measured?
robust z-score, replicate 1: -1.22; robust z-score, replicate 2: -1.39; robust z-score, replicate 3: -1.46

What is on record for NDUFB11 (NADH:ubiquinone oxidoreductase subunit B11)?
robust z-score, replicate 1: 0.308; robust z-score, replicate 2: 0.11; robust z-score, replicate 3: 0.385
